# Laboratory results published in patent US12607622B2, “Method for diagnosing and monitoring inflammatory disease progression” (MCMASTER UNIVERSITY, priority 2013, dated 2026).
# For at least one compound, name, drawing or mass did not settle the structure.
# Test system: BDNF
# Experiment: BDNF transcript expression in the uterus of ovariectomized mice by Real Time PCR
# Assay type: in vivo
# Details: estradiol primed, Real Time PCR relative expression, FIG. 8
# Description: BDNF transcripts were measured in the murine uterus of ovariectomized mice by Real Time PCR and relative expression quantified in mice receiving saline (Control (n=4)), estradiol primed then estradiol (E2 (n=6)), estradiol primed then progesterone (P4 (n=6)), estradiol primed then estradiol+progesterone (E2+P4 (n=6)), or estradiol primed then saline (Saline (n=4). [table]
smiles,measurement,value
"C[C@]12CC[C@@H]3c4ccc(O)cc4CC[C@H]3[C@@H]1CC[C@@H]2O [E2, estradiol]",BDNF expression in the uterus,significantly increased
